PubChem BioAssay AID504764, Drosophila RNAi Screening Center, 2011
Aim: 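Genes whose knock-down alters Notch-dependent transcription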 (primary screen). Cells: Drosophila Kc167 cells. Reagents: long dsRNA against Drosophila genes. Duration: about 5 days (4 days dsRNA, then 24 h after transfection). Challenge: transfection of constitutively active membrane-tethered Notch lacking the extracellular domain, read 24 h later. Read-out: 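Light from a Notch-responsive E(spl)m3 luciferase reporter under active Notch, with control-promoter and no-Notch reporter wells to normalise; raw counts from paired wells a and b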. Reading the numbers: induced reporter light, run 1, well a and induced reporter light, run 1, well b: higher = more light from the Notch target reporter with active Notch; control promoter light, run 1, well a and control promoter light, run 1, well b: higher = more light from the viral control promoter (cell number, transfection, viability); uninduced reporter light, run 1, well a: higher = more light from the Notch target reporter without active Notch. Rule for the call: 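Wells with low control signal or poorly matching duplicates excluded; duplicates averaged; per source plate, z beyond ±2 for induced/control log2 ratio or beyond ±1.8 for induced/uninduced marks a hit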. Meaning of the calls: active = modifier hit (raised or lowered Notch signal); inactive = not a hit.
In all, the deposit lists about 22,000 reagents; shown is an unselected part of those with a known target gene and a result. Of all reagents, 403 (1.9%) got an active call. 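Unnormalised raw counts per well; ratio z-scores behind the hit calls and whether each hit raises or lowers signal are not deposited.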 Reagent sequences are not shown. Not stated in the record: the amount of reagent.

gene knocked down | amplicon | induced reporter light, run 1, well a | induced reporter light, run 1, well b | control promoter light, run 1, well a | control promoter light, run 1, well b | uninduced reporter light, run 1, well a | outcome
galla-1 | DRSC05987 | 1.51e5 | 1.62e5 | 2.79e5 | 2.71e5 | 7370 | inactive
Ras64B | DRSC08689 | 1.29e5 | 1.04e5 | 1.70e5 | 1.52e5 | 11990 | inactive
CG1806 | DRSC19787 | 1.86e5 | 1.96e5 | 2.38e5 | 2.26e5 | 14620 | inactive
CG16965 | DRSC02547 | 1.36e5 | 1.64e5 | 1.78e5 | 1.76e5 | 14000 | inactive
CG14325 | DRSC14804 | 2.30e5 | 2.10e5 | 2.24e5 | 2.13e5 | 18860 | inactive
CG14459 | DRSC11719 | 6365 | 4980 | 8505 | 8205 | 2488 | inactive
CG4887 | DRSC00670 | 1.44e5 | 1.33e5 | 1.17e5 | 71040 | 11580 | inactive
Patronin | DRSC06756 | 1.09e5 | 1.10e5 | 1.29e5 | 1.33e5 | 12005 | inactive
Patronin | DRSC06757 | 82345 | 1.07e5 | 1.56e5 | 1.19e5 | 7715 | inactive
Patronin | DRSC06994 | 34445 | 28335 | 45180 | 45480 | 3620 | inactive
Asciz | DRSC08421 | 1.17e5 | 1.28e5 | 1.94e5 | 1.50e5 | 9885 | inactive
CoRest | DRSC19881 | 1.20e5 | 1.06e5 | 93375 | 54325 | 10315 | inactive
CG6421 | DRSC07420 | 85655 | 1.12e5 | 1.51e5 | 2.01e5 | 6975 | inactive
Dtwd2 | DRSC12501 | 1.06e5 | 1.23e5 | 1.37e5 | 1.01e5 | 7785 | inactive
Dek | DRSC07418 | 78270 | 82760 | 1.17e5 | 1.37e5 | 6685 | inactive
rno | DRSC08584 | 95565 | 87865 | 1.28e5 | 1.39e5 | 5455 | inactive
SelT | DRSC02732 | 2.15e5 | 1.77e5 | 1.91e5 | 1.77e5 | 18060 | inactive
CG3841 | DRSC02730 | 1.01e5 | 1.22e5 | 59530 | 70235 | 13692 | inactive
CG11109 | DRSC11633 | 1.24e5 | 1.49e5 | 96480 | 1.25e5 | 8470 | inactive
Galt | DRSC03161 | 2.62e5 | 2.32e5 | 2.35e5 | 2.53e5 | 20300 | inactive

Single entries from the list:
For “uninduced reporter light, run 1, well a”, Galt [DRSC03161] shows 20300
Result of rno [DRSC08584] in “uninduced reporter light, run 1, well a”: 5455
